Assay results taken from the supplement of paper PMC8773631.
± gives the uncertainty stated by the source. The list shows a part of the results, in another mix than the full data.

test system: NCC-MFS5-C1; assay: cell viability relative to DMSO control; higher = less growth inhibition; conditions: 10 µM; treatment time: 3 days
Experimental: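 NCC-MFS5-C1 myxofibrosarcoma cells (1x10^4 per well, 384-well) were treated on day 2 with 10 µM of each drug. On day 5, viability was read by CCK-8 absorbance at 450 nm and normalised to the DMSO control (%), n = 2.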

Question: Which cell viability does the source give for `COC(=O)[C@H](CCCN=C(N)N)NS(=O)(=O)c1ccc(C)cc1` here?
Answer: Its cell viability is 101 ± 2.2%.
